Here are results for two molecules from article PMC7256045.

By UniProt entry, the sequences of proteins in these tests, tags left out. Where a name states a change or a piece, a line headed by the entry shows the natural chain unless it says otherwise.
UniProt O15382: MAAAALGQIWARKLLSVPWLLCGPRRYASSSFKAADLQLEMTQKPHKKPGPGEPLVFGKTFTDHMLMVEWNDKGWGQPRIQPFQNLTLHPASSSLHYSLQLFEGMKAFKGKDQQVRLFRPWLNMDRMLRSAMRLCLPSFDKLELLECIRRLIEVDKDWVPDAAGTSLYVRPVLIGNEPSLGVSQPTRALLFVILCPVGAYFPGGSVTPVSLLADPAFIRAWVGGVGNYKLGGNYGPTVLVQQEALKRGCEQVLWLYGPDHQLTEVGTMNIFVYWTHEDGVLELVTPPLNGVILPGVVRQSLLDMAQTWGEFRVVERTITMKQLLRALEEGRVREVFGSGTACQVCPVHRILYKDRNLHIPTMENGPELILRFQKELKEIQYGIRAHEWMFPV
UniProt Q92793: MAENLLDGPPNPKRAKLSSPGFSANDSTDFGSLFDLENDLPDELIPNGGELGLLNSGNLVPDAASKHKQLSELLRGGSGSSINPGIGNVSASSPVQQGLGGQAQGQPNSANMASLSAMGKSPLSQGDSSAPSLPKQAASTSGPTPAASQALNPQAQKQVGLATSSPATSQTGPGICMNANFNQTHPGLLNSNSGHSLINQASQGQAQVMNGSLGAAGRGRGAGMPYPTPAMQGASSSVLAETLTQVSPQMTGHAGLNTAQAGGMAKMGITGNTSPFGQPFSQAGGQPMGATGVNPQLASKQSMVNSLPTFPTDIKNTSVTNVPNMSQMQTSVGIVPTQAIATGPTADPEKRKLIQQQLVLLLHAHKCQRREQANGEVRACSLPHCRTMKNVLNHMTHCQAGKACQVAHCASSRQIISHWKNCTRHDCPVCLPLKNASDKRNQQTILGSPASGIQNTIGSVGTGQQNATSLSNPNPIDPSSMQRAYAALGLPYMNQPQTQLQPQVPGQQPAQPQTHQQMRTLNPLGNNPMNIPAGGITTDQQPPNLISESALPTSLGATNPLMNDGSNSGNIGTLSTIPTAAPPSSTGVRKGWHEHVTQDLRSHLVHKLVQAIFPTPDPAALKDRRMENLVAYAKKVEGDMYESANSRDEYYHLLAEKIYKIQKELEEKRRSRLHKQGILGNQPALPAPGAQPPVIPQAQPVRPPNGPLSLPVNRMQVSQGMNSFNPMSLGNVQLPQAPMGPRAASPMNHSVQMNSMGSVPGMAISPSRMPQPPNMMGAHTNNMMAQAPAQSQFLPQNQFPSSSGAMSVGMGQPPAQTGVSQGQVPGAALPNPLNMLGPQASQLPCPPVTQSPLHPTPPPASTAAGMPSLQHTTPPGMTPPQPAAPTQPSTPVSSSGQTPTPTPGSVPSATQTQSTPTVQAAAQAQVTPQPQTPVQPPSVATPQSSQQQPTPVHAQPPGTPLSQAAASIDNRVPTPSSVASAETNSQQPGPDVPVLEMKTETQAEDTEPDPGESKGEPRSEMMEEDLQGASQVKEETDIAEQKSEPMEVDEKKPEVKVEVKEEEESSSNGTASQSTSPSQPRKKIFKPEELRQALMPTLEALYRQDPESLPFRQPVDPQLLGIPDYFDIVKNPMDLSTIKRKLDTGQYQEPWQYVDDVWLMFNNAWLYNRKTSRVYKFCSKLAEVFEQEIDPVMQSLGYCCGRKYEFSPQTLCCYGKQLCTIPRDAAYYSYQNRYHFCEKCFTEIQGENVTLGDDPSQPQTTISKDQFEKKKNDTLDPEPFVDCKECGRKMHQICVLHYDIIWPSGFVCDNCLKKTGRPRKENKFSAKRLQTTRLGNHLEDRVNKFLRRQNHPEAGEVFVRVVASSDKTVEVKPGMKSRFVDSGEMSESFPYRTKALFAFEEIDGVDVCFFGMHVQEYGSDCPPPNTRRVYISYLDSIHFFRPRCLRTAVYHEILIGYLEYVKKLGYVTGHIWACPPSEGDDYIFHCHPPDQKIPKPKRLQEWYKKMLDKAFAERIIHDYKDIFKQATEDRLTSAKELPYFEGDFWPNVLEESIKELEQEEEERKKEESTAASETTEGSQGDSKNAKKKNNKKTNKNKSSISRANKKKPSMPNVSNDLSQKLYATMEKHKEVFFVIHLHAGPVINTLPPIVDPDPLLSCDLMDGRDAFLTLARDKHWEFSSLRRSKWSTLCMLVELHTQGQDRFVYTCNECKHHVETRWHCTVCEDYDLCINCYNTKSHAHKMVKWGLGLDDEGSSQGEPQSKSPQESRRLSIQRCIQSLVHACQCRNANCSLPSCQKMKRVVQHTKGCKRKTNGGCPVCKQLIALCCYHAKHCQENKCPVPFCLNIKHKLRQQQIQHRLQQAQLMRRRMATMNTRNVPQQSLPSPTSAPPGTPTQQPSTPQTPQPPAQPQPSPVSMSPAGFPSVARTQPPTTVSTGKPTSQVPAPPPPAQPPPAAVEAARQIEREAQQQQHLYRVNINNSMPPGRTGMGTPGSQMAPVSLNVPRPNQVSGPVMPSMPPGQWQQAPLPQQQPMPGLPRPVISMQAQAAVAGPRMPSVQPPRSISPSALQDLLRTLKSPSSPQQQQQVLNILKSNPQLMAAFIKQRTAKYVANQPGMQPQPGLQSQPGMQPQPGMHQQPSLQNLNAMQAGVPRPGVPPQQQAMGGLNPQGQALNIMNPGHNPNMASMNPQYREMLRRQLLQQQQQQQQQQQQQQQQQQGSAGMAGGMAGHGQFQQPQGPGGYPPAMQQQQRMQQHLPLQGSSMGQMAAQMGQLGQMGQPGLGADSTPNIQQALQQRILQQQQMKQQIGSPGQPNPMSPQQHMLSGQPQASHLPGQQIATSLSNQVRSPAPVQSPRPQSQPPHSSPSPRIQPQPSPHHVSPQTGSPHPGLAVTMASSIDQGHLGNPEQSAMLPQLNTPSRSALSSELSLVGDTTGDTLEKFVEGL

Read-outs that look alike come from different tables or passages of the source. No constants are given. Whether binding was seen depends on the method and setting. In cells and extracts the contact can be indirect. Binding can be weak; no strength is given.

The target in test [1] is His-BCAT2 (branched-chain amino acid transaminase 2) (human) (UniProt O15382). The experiment in a line: pull-down; His-BCAT2 purified on Ni-NTA agarose beads, incubated with cell lysate overnight at 4 °C; beads washed three times with 0.3% NP-40 buffer; western blot; non-induced E. coli as control; only the target purified.
Test [2] shares this target. The test is described as above. The source holds these as a separate data set.

Take “cAMP-responsive element-binding (CREB)-binding protein (CBP) (from UniProt Q92793 1-2442)”: the binding entry in test [1] is reported as “binds”.

B1: SIRT4 (endogenous) (enzyme, UniProt Q9Y6E7 29-314)
chain: IGLFVPASPPLDPEKVKELQRFITLSKRLLVMTGAGISTESGIPDYRSEKVGLYARTDRRPIQHGDFVRSAPIRQRYWARNFVGWPQFSSHQPNPAHWALSTWEKLGKLYWLVTQNVDALHTKAGSRRLTELHGCMDRVLCLDCGEQTPRGVLQERFQVLNPTWSAEAHGLAPDGDVFLSEEQVRSFQVPTCVQCGGHLKPDVVFFGDTVNPDKVDFVHKRVKEADSLLVVGSSLQVYSGYRFILTAWEKKLPIAILNIGPTRSDDLACLKLNSRCGELLPLIDPC
As to B1, the binding result in test [2] was “binds”.
